# PubChem BioAssay AID1259308 – NCATS – 2017
# Aim: 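Genes whose loss raises luciferase production in HEK293 cells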 (primary screen)
# Cell system: human HEK293 embryonic kidney cells stably expressing firefly luciferase (HEK-CMV-Luc2-Hygro)
# Reagents: single siRNA against human genes, 0.8 pmol siRNA per well
# Duration: 72 h
# Read-out: 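Reporter luminescence and viable-cell signal on separate replicate plates, given as percent of non-targeting control and median/MAD z-scores, plus per-cell luciferase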
# Reading the numbers: total luciferase, z-score and total luciferase, % of control: higher = more reporter protein produced; luciferase per cell, z-score: higher = more reporter output per viable cell
# Rule for the call: 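Active when the median/MAD z-score for overall luciferase is greater than 3; a gene was taken forward for validation with new siRNAs if at least two of its three siRNAs passed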
# Calls: active = raised luciferase; inactive = no rise
# Here is an unselected part of about 59,000 reagents tested. About 1,510 of all reagents (2.6%) were called active. 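Calls use total luciferase alone and ignore viability, so some active siRNAs may act by altering cell number.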 The numbers tell different reagents against one gene apart. Not all columns of the deposit are shown. Reagent sequences are not shown.
Gene,reagent no.,"total luciferase, z-score","total luciferase, % of control","luciferase per cell, z-score",Outcome
LUC7L,1,1.36,109,0.944,inactive
LUC7L,2,-1.5,52,-1.22,inactive
LUC7L,3,0.149,84.9,-0.465,inactive
POMK,1,-0.606,69.8,-0.51,inactive
POMK,2,0.631,94.4,-0.101,inactive
POMK,3,0.621,94.2,0.731,inactive
ZNF555,1,0.244,86.7,-0.114,inactive
ZNF555,2,0.357,89,-0.3,inactive
ZNF555,3,0.759,97,0.249,inactive
ADK,1,-0.175,78.4,0.0445,inactive
ADK,2,2.19,125,1.52,inactive
ADK,3,-0.367,74.6,-1.13,inactive
SLC16A9,1,-1.76,46.9,-1.94,inactive
SLC16A9,2,3.43,150,2.23,active
SLC16A9,3,1.32,108,0.782,inactive
SRPX,1,-0.413,73.7,-1.11,inactive
SRPX,2,-0.661,68.7,-0.0473,inactive
SRPX,3,-0.43,73.3,-0.92,inactive
RPL23,1,-2.63,29.5,-1.2,inactive
RPL23,2,-1.98,42.4,0.554,inactive
RPL23,3,-3.14,19.5,-3.82,inactive
CLASP2,1,0.82,98.2,0.348,inactive
CLASP2,2,0.477,91.4,-0.358,inactive
CLASP2,3,-2.55,31.2,-2.15,inactive
ABCB6,1,-0.0603,80.7,-0.315,inactive
ABCB6,2,0.412,90.1,-0.205,inactive
ABCB6,3,-0.429,73.3,-0.0601,inactive
GCG,1,1.17,105,0.358,inactive
GCG,2,0.235,86.6,0.1,inactive
GCG,3,-0.671,68.6,-0.254,inactive
SDR42E1,1,-0.794,66.1,-0.731,inactive
SDR42E1,2,-0.744,67.1,-0.927,inactive
SDR42E1,3,-0.965,62.7,-0.852,inactive
KLHL5,1,0.178,85.4,0.166,inactive
KLHL5,2,0.594,93.7,1.31,inactive
KLHL5,3,0.263,87.1,-0.733,inactive
NAALADL1,1,3.19,145,2.74,active
NAALADL1,2,0.125,84.4,-0.424,inactive
NAALADL1,3,2.3,128,1.21,inactive

Entries listed above called active:
Gene,reagent no.,"total luciferase, z-score","total luciferase, % of control","luciferase per cell, z-score",Outcome
SLC16A9,2,3.43,150,2.23,active
NAALADL1,1,3.19,145,2.74,active
